In all, about 390,000 compounds went through this assay and about 760 (0.19%) were called active. The inconclusive results got no clear call from the source; some entries with a clear call stand among them for comparison. Calls follow the shape of the dose curve; as a rule, active = well fitted inhibition curve with a large enough effect; inconclusive = small, poorly fitted or top-dose-only effect; inactive = flat fitted curve, though single readings scatter. A potency beside an inconclusive call is a rough fit, not a confirmed value.
Assay: qHTS for Inhibitors of Vif-A3F Interactions: qHTS; also: nearly all actives have a fitted effect of over 65% in size
Details: HeLa A3F-eYFP + Vif (tagged APOBEC3F with the HIV-1 protein that degrades it), YFP fluorescence increase; series mostly up to 46.1 µM
Method in brief: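 HeLa cells stably expressing A3F-eYFP plus Vif, plated and incubated overnight at 37 deg C, then exposed to compounds overnight at 37 deg C. Blocked degradation read as raised yellow fluorescence (Ex 488/Em 500-530).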
Potency is read from the fitted curve at half-maximal effect.

Question: With `O=C(NC1CCS(=O)(=O)C1)c1cccc(S(=O)(=O)N2CCCC2)c1` (stereo unspecified) as the compound, how does the Potency read?
Answer: The Potency was inconclusive: 35.5 µM [inhibitor, single point].

Question: With `Cc1ccc(C)c(NC(=O)CSc2n[nH]c(-c3ccccn3)n2)c1` as the compound, how does the Potency read?
Answer: The Potency was inconclusive: 3.55 µM [inhibitor, partial curve, poor fit].

Question: With `CSc1nc2ccccc2cc1/C=C(\C#N)c1ccc(Cl)c(Cl)c1` as the compound, how does the Potency read?
Answer: The Potency was inconclusive: 10 µM [inhibitor, partial curve, poor fit].

Question: Which Potency does the source give for `O=C(CSc1ccccn1)N1CCN(C(=O)CSc2ccccn2)CC1` here?
Answer: Its Potency is “inactive”.

Question: With `Cc1cccc(NCc2ccc(O)c3ncccc23)c1` as the compound, how does the Potency read?
Answer: The Potency was inconclusive: 35.5 µM [inhibitor, single point].

Question: With `Cc1c(C(=O)Nc2ccc(OC(F)(F)F)cc2)sc2nc3n(c(=O)c12)CCC3` as the compound, how does the Potency read?
Answer: Its Potency is inconclusive: 3.55 µM [inhibitor, single point].

Question: For `COc1ccc(N(C(=O)c2snc(C(N)=O)c2N)C(C(=O)NC2CCCC2)c2ccc3ncccc3c2)cc1` (stereo unspecified), which Potency is on record?
Answer: Its Potency is inconclusive: 3.98 µM [inhibitor, single point].

Question: With `COc1ccc(/C=N/NC(=O)c2cccnc2)cc1CN1CCc2cc(OC)c(OC)cc2C1C` (stereo unspecified) as the compound, how does the Potency read?
Answer: Its Potency is inconclusive: 25.1 µM [inhibitor, partial curve, poor fit].

Question: Which Potency does the source give for `CNC(=S)N/N=C/c1ccco1` here?
Answer: Its Potency is inconclusive: 35.5 µM [inhibitor, single point].

Question: For `Cc1ccc(-c2csc(-c3cc4c([nH]c3=O)CC(c3ccccc3)CC4=O)n2)cc1` (stereo unspecified), which Potency is on record?
Answer: Its Potency is inconclusive: 20 µM [inhibitor, partial curve, poor fit].

Question: For `CC1=NN2C(=N)/C(=C\c3cc(C)n(-c4cccc(C)c4)c3C)C(=O)N=C2S1`, which Potency is on record?
Answer: The Potency was “inactive”.

Question: With `CC(=O)/C(=N\Nc1ccc(Cl)cc1)Sc1nnc(-c2ccccc2)n1-c1ccccc1` as the compound, how does the Potency read?
Answer: Its Potency is inconclusive: 35.5 µM [inhibitor, single point].

Question: With `Cc1ccnc(N/C=C/C(=O)c2ccc(Br)cc2)c1` as the compound, how does the Potency read?
Answer: Its Potency is inconclusive: 17.8 µM [inhibitor, partial curve, poor fit].

Question: With `COc1c(C(CC(C)C)OC(C)=O)ccc2c1C(=O)OCc1cc(C)cc(O)c1O2` (stereo unspecified) as the compound, how does the Potency read?
Answer: The Potency was inconclusive: 35.5 µM [inhibitor, single point].

Question: Which Potency does the source give for `COc1ccccc1Cn1cc(C(=O)c2ccc(C)cc2)c(=O)c2cc3c(cc21)OCCO3` here?
Answer: The Potency was “inactive”.

Question: Which Potency does the source give for `CCCCCC(=O)NCc1c(C(F)(F)F)nn(C)c1N1CCOCC1` here?
Answer: The Potency was inconclusive: 3.16 µM [inhibitor, partial curve, poor fit].

Question: Which Potency does the source give for `CNC(=S)N/N=C(\C)c1ccc(Cl)c(Cl)c1` here?
Answer: The Potency was inconclusive: 5.62 µM [inhibitor, single point].

Question: Which Potency does the source give for `OCCCn1c(C2CCCN2c2nc(-c3ccc(Cl)cc3)cs2)nc2cc(Cl)c(N3CCCCC3)cc21` (stereo unspecified) here?
Answer: The Potency was inconclusive: 3.55 µM [inhibitor, full curve, poor fit].

Question: With `Cc1ccc(CNC(=O)CC(C)S(=O)(=O)c2ccc3c(c2)NC(=O)CS3)o1` (stereo unspecified) as the compound, how does the Potency read?
Answer: The Potency was inconclusive: 11.2 µM [inhibitor, partial curve, poor fit].

Question: With `Cc1ccc(NC(=O)Cn2c(/C=C/c3ccccc3)nc3ccccc32)cc1C` as the compound, how does the Potency read?
Answer: Its Potency is “inactive”.

Question: For `COc1cccc(/C(O)=C/c2nc3ccc(C(=O)NCCc4ccc(Cl)cc4)cc3[nH]c2=O)c1`, which Potency is on record?
Answer: Its Potency is active: 5.01 µM.

Question: With `COc1ccc(NC(=O)CSc2nc(N)c3cc4c(nc3n2)CCCC4)cc1` as the compound, how does the Potency read?
Answer: Its Potency is inconclusive: 28.2 µM [inhibitor, single point].

Question: For `CS(=O)(=O)N1N=C(c2cccs2)CC1c1ccccc1O` (stereo unspecified), which Potency is on record?
Answer: Its Potency is inconclusive: 35.5 µM [inhibitor, single point].

Question: For `Oc1ccccc1C(Nc1nccs1)c1ccc2cccnc2c1O` (stereo unspecified), which Potency is on record?
Answer: Its Potency is inconclusive: 35.5 µM [inhibitor, partial curve, poor fit].

Question: With `Cc1ccc(/C=C(\C#N)c2nn(-c3ccccc3)c(N)c2C#N)cc1` as the compound, how does the Potency read?
Answer: The Potency was inconclusive: 25.1 µM [inhibitor, single point].

Question: For `Cc1cc(NC(=O)/C=C/c2ccccc2Cl)n(-c2nc3ccccc3[nH]2)n1`, which Potency is on record?
Answer: Its Potency is inconclusive: 35.5 µM [inhibitor, single point].

Question: For `CC1CN=C(Nc2cccc(S(=O)(=O)N(C)C)c2)S1` (stereo unspecified), which Potency is on record?
Answer: Its Potency is inconclusive: 20 µM [inhibitor, partial curve, poor fit].

Question: With `COc1ccc(OCCCC(=O)N2CCN(S(=O)(=O)c3cccc(F)c3)CC2)cc1` as the compound, how does the Potency read?
Answer: Its Potency is inconclusive: 4.47 µM [inhibitor, partial curve].

Question: For `c1coc(CSc2ncnc3c2oc2ccccc23)c1`, which Potency is on record?
Answer: Its Potency is inconclusive: 22.4 µM [inhibitor, single point].

Question: With `O=C(COC(=O)c1cccnc1)Nc1cccc2ccccc12` as the compound, how does the Potency read?
Answer: The Potency was inconclusive: 2.51 µM [inhibitor, partial curve, poor fit].

Question: For `CC1CCCC(C)N1C(=O)COC(=O)c1cc(S(=O)(=O)N2CCOCC2)ccc1Cl` (stereo unspecified), which Potency is on record?
Answer: Its Potency is inconclusive: 20 µM [inhibitor, single point].

Question: Which Potency does the source give for `C=CCN(CC=C)c1cnn(-c2nc3ccccc3[nH]2)c(=O)c1Cl` here?
Answer: Its Potency is “inactive”.

Question: With `COc1ccccc1N1C(C)=CC(=C(C#N)c2nc3ccccc3s2)C=C1C` as the compound, how does the Potency read?
Answer: Its Potency is inconclusive: 28.2 µM [inhibitor, single point].

Question: With `COc1ccc(/C(C)=N/NC(=S)NCCc2ccccc2)c(O)c1` as the compound, how does the Potency read?
Answer: The Potency was inconclusive: 0.631 µM [inhibitor, full curve, poor fit].

Question: Which Potency does the source give for `CCN(CC(=O)Nc1ccccc1OC)C(=O)C1CCC1` here?
Answer: Its Potency is inconclusive: 35.5 µM [inhibitor, single point].

Question: For `Nc1c(C(=O)Nc2ccc(S(=O)(=O)N3CCCC3)cc2)sc2nc3ccc(OC(F)(F)F)cc3cc12`, which Potency is on record?
Answer: Its Potency is active: 22.4 µM.

Question: For `CC(=O)c1ccc(OCC(=O)N(C)CC(=O)Nc2ccc(N3CCOCC3)cc2)cc1`, which Potency is on record?
Answer: The Potency was inconclusive: 35.5 µM [inhibitor, single point].

Question: Which Potency does the source give for `COc1ccccc1CNS(=O)(=O)c1ccc(-c2cnc(C3CC3)o2)cc1` here?
Answer: Its Potency is “inactive”.

Question: Which Potency does the source give for `COc1ccc(CNc2cc(C)nc3ccc(OC)cc23)cc1` here?
Answer: The Potency was “inactive”.

Question: For `O=C(c1cc(-c2cccs2)nc2ccccc12)N1CCN(c2ccccc2)CC1`, which Potency is on record?
Answer: The Potency was “inactive”.

Question: Which Potency does the source give for `O=C(N/N=C/c1cc([N+](=O)[O-])ccc1O)C12CC3CC(CC(C3)C1)C2` here?
Answer: The Potency was inconclusive: 3.16 µM [inhibitor, single point].
